Reference: the supplement of paper PMC10849652
Some of the results follow.

By UniProt entry, the sequences of proteins in these tests, tags left out. Where a name states a change or a piece, a line headed by the entry shows the natural chain unless it says otherwise.
UniProt Q14CB8: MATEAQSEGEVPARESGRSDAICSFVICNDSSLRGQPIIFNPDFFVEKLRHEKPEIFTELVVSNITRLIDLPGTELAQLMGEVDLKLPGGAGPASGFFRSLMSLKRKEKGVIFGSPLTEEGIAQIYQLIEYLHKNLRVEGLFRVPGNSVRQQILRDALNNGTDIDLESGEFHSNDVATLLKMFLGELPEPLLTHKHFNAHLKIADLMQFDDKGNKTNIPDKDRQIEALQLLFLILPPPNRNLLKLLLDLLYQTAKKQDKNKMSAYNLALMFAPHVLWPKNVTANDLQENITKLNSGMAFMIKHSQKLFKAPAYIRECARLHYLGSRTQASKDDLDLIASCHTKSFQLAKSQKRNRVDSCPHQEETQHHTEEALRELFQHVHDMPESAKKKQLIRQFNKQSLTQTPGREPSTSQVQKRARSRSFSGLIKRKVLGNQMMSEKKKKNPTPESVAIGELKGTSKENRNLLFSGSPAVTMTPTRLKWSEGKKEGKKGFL
UniProt Q8IUR7, whole entry, looked up: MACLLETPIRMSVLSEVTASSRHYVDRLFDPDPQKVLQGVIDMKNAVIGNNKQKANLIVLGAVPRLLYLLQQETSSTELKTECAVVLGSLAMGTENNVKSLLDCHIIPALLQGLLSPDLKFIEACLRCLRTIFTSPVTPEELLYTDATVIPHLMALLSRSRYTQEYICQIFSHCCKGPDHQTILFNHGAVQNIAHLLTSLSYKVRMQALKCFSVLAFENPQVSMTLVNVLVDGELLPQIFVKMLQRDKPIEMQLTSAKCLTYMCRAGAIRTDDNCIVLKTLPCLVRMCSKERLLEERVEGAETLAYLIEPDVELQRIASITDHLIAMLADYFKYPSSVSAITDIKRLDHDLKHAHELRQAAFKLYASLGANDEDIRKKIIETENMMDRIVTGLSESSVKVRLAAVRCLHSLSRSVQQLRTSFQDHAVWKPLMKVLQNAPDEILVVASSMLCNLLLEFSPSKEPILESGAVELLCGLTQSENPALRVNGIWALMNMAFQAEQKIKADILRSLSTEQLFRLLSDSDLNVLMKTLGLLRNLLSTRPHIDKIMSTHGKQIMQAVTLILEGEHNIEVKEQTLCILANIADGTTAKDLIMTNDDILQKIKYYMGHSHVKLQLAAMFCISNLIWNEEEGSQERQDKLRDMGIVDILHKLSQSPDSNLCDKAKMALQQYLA
UniProt Q9H0F7: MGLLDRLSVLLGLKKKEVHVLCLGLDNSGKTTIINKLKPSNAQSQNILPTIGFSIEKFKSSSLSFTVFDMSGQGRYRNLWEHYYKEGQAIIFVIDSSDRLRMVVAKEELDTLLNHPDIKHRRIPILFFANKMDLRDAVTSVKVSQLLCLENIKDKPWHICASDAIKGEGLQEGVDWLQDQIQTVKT
UniProt Q9NZN5: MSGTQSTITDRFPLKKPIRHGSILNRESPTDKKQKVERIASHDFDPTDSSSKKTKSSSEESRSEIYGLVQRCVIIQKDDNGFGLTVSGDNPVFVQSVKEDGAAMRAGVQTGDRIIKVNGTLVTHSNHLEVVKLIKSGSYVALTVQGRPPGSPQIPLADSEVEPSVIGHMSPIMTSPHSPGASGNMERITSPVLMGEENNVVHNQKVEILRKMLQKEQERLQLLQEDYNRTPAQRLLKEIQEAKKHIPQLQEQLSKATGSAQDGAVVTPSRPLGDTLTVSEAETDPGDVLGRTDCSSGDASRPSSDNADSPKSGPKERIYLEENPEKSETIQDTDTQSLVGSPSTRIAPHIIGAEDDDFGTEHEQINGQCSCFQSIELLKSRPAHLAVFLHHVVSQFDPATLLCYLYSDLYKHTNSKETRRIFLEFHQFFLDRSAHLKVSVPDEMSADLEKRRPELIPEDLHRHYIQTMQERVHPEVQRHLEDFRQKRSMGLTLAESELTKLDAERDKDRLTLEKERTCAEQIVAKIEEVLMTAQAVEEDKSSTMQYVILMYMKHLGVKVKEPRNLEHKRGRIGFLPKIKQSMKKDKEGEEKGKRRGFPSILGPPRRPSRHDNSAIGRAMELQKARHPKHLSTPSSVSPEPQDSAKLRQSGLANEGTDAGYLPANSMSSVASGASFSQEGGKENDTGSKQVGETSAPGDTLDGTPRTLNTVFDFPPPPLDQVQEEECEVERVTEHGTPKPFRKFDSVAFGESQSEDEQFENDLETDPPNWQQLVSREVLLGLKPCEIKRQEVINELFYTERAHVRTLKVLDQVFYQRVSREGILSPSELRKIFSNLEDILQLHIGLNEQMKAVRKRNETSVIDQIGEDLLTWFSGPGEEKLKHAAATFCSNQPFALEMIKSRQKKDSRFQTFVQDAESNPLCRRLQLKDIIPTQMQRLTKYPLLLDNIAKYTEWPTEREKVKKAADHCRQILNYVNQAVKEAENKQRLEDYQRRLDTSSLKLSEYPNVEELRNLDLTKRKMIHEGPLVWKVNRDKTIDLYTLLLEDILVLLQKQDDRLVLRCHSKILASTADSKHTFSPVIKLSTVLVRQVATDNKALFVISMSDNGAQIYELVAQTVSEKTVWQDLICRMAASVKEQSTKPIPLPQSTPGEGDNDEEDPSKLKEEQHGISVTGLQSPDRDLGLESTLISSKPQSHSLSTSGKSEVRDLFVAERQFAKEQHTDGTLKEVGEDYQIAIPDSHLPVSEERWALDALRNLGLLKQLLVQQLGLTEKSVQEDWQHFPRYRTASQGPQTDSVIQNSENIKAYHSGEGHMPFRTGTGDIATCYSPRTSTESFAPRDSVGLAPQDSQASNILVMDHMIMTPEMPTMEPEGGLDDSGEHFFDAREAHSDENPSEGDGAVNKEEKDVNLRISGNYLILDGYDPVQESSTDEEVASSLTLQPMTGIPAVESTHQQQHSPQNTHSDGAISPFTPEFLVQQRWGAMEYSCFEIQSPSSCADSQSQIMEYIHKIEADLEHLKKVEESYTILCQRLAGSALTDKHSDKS
UniProt O14791: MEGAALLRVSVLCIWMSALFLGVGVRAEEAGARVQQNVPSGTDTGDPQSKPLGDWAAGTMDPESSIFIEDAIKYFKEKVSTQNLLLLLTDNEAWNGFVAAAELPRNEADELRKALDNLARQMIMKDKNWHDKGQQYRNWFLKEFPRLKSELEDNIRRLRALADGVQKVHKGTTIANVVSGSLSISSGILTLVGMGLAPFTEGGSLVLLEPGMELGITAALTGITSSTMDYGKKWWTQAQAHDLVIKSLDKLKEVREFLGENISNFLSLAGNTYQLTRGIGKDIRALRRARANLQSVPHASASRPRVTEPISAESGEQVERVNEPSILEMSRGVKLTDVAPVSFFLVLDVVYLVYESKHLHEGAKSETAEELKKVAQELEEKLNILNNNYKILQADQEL
UniProt P25054, whole entry, looked up: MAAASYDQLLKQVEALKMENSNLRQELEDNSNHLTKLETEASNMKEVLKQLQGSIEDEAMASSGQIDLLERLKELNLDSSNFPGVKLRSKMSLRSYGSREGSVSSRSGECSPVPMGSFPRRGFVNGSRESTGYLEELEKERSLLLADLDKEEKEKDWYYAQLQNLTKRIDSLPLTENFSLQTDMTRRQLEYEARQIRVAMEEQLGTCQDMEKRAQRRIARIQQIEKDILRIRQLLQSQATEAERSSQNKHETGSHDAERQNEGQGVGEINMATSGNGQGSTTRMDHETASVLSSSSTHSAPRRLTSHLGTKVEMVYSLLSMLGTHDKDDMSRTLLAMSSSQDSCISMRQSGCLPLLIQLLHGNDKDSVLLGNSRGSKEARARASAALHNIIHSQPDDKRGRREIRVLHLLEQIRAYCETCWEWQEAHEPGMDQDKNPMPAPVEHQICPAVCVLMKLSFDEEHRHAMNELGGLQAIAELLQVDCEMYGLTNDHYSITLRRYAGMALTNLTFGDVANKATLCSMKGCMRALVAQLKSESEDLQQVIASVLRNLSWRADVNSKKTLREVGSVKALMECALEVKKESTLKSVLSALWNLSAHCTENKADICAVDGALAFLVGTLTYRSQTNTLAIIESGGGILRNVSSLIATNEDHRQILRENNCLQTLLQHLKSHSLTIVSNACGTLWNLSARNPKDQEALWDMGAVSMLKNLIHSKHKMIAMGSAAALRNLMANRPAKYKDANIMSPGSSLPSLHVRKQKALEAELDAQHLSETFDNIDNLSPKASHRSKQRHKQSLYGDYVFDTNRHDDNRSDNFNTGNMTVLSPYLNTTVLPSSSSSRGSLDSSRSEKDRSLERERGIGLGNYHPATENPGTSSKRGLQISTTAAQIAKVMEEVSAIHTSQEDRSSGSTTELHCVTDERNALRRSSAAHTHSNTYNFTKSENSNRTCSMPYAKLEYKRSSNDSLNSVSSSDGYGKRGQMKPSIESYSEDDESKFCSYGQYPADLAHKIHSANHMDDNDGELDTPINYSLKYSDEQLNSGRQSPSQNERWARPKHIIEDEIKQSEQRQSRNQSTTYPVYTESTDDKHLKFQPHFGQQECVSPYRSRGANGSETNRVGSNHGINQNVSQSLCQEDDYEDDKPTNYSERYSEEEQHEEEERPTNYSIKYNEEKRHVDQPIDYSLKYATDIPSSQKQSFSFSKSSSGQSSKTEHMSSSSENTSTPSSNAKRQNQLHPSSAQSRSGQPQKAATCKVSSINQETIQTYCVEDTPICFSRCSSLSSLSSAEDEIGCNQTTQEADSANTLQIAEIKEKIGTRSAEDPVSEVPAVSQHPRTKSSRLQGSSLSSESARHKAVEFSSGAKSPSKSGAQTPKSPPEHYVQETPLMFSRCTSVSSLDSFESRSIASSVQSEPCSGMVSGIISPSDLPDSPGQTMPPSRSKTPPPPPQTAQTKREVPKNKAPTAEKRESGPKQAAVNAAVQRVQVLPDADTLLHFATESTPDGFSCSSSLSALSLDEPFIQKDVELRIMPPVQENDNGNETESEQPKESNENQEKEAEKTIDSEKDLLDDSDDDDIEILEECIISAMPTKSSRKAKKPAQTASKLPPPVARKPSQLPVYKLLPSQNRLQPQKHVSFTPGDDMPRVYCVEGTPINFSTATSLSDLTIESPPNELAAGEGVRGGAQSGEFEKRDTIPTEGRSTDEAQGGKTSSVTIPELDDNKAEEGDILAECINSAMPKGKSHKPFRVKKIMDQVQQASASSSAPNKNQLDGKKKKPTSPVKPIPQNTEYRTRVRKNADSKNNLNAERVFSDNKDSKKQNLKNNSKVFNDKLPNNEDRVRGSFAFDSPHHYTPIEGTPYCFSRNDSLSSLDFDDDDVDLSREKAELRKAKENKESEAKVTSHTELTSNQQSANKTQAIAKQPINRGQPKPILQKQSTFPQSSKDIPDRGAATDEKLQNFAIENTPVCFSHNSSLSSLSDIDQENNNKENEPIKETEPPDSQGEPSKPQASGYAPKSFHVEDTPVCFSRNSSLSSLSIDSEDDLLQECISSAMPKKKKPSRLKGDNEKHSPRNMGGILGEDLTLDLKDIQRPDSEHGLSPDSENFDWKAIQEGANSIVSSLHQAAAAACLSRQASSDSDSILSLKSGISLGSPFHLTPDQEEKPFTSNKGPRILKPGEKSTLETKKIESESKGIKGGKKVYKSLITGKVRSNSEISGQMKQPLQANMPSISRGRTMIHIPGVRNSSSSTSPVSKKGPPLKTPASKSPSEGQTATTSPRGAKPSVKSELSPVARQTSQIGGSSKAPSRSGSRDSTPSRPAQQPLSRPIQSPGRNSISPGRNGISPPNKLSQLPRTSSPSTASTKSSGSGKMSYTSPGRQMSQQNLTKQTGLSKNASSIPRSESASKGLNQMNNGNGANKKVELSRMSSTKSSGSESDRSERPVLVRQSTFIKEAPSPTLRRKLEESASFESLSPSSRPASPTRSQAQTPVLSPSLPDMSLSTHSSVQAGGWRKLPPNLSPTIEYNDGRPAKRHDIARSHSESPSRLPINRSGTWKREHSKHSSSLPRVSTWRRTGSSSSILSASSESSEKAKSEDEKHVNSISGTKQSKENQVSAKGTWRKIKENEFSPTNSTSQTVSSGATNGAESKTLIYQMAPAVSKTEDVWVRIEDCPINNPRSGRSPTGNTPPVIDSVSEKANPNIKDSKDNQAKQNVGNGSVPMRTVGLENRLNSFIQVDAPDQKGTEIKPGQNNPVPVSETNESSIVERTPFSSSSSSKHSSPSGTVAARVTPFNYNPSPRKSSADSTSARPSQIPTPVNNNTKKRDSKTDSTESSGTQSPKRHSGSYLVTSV
UniProt P35414: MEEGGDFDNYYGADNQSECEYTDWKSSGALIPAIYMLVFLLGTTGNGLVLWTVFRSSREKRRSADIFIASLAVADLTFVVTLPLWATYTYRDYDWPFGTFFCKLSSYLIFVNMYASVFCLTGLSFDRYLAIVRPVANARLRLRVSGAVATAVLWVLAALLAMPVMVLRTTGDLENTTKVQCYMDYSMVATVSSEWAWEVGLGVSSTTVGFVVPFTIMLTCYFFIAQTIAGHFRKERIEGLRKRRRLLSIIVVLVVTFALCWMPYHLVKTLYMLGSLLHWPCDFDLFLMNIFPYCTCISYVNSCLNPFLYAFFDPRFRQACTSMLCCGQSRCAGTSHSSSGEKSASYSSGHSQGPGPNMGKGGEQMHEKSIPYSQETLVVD

Legend:
Experiment in all cases: log2 fold change, soluble protein after heating vs DMSO (PISA); higher = thermal stabilisation; K562 lysate, 10 uM; active = over 0.2 and 3.5 SD of the protein, either way, in both replicates (recomputed)
pictilisib = compound: CS(=O)(=O)N1CCN(Cc2cc3nc(-c4cccc5[nH]ncc45)nc(N4CCOCC4)c3s2)CC1 [pictilisib]
Procedure, shortened: (§1)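 The values are log-two fold changes in thermal stability compared with solvent controls and come from duplicates. They were obtained by TMTpro 16plex LC-MS/MS, with channel sums equalised, on the supernatant after 21,000xg for 90 min. That supernatant came from crude K562 extract at 1 mg/mL protein treated with 10 μM compound for 30 min, heated for 3 min across 48°C-58°C, pooled and brought to 0.5% NP-40 at 4°C.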

crizotinib = compound: C[C@@H](Oc1cc(-c2cnn(C3CCNCC3)c2)cnc1N)c1c(Cl)ccc(F)c1Cl [crizotinib]
Procedure, shortened: as §1

duvelisib = compound: C[C@H](Nc1ncnc2nc[nH]c12)c1cc2cccc(Cl)c2c(=O)n1-c1ccccc1 [duvelisib]
Procedure, shortened: as §1

tozasertib = compound: Cc1cc(Nc2cc(N3CCN(C)CC3)nc(Sc3ccc(NC(=O)C4CC4)cc3)n2)n[nH]1 [tozasertib]
Procedure, shortened: as §1

doramapimod = compound: Cc1ccc(-n2nc(C(C)(C)C)cc2NC(=O)Nc2ccc(OCCN3CCOCC3)c3ccccc23)cc1 [doramapimod]
Procedure, shortened: as §1

bafetinib = compound: Cc1ccc(NC(=O)c2ccc(CN3CC[C@H](N(C)C)C3)c(C(F)(F)F)c2)cc1Nc1nccc(-c2cncnc2)n1 [bafetinib]
Procedure, shortened: as §1

nilotinib = compound: Cc1cn(-c2cc(NC(=O)c3ccc(C)c(Nc4nccc(-c5cccnc5)n4)c3)cc(C(F)(F)F)c2)cn1 [nilotinib]
Procedure, shortened: as §1

[1] = compound: Cc1nc(Nc2n[nH]c3c2CN(C(=O)N[C@H](CN(C)C)c2ccccc2)C3(C)C)c2sccc2n1
Procedure, shortened: as §1

dasatinib = compound: Cc1nc(Nc2ncc(C(=O)Nc3c(C)cccc3Cl)s2)cc(N2CCN(CCO)CC2)n1 [dasatinib]
Procedure, shortened: as §1

[2] = compound: Cc1ncc(-c2ccnc(Nc3ccc(S(C)(=O)=O)cc3)n2)n1C(C)C
Procedure, shortened: as §1

[3] = compound: Cn1cc(-c2ccc3c(c2)CCN3C(=O)Cc2cccc(C(F)(F)F)c2)c2c(N)ncnc21
Procedure, shortened: as §1

quisinostat = compound: Cn1cc(CNCC2CCN(c3ncc(C(=O)NO)cn3)CC2)c2ccccc21 [quisinostat]
Procedure, shortened: as §1

tipifarnib = compound: Cn1cncc1[C@@](N)(c1ccc(Cl)cc1)c1ccc2c(c1)c(-c1cccc(Cl)c1)cc(=O)n2C [tipifarnib]
Procedure, shortened: as §1

[4] = compound: NC(=O)Nc1cc(-c2cccc(F)c2)sc1C(=O)N[C@H]1CCCNC1
Procedure, shortened: as §1

[5] = compound: NC1(c2ccc(-c3nc4ccn5c(=O)[nH]nc5c4cc3-c3ccccc3)cc2)CCC1
Procedure, shortened: as §1

lapatinib = compound: CS(=O)(=O)CCNCc1ccc(-c2ccc3ncnc(Nc4ccc(OCc5cccc(F)c5)c(Cl)c4)c3c2)o1 [lapatinib]
Procedure, shortened: as §1

[6] = compound: C[C@H](C1=CC=C(C=C1)C(=O)NC2=C3C=CNC3=NC=C2)N
Procedure, shortened: as §1

gandotinib = compound: Cc1cc(Nc2cc(CN3CCOCC3)c3nc(C)c(Cc4ccc(Cl)cc4F)n3n2)n[nH]1 [gandotinib]
Procedure, shortened: as §1

[7] = compound: Cc1cccc(CC(=O)N2CCc3c2ccc(-c2cn(C)c4ncnc(N)c24)c3F)n1
Procedure, shortened: as §1

[8] = compound: NC(=O)c1cnc(N[C@@H]2CCCC[C@@H]2N)nc1Nc1cccc(-n2nccn2)c1
Procedure, shortened: as §1

Measured: log2 fold change

ARHGAP19 isoform 2 (UniProt Q14CB8)
inactive: pictilisib -0.21 | crizotinib -0.033 | duvelisib -0.085 | tozasertib 0.11 | doramapimod 0 | bafetinib -0.405 | nilotinib 0.073 | [1] 0.02 | dasatinib -0.023 | [2] 0.044 | [3] 0.069 | quisinostat -0.139 | tipifarnib -0.041 | [4] 0.01 | [5] 0.015

ARMC8 isoform 6 (UniProt Q8IUR7)
inactive: lapatinib 0.008 | [6] -0.025 | gandotinib -0.042 | [7] 0.047 | [8] 0.071 | [5] 0.082

ART4 (UniProt Q93070)
inactive: pictilisib 0.005 | [6] 0.028 | gandotinib 0.012 | tozasertib 0.07 | bafetinib -0.019 | [7] -0.008

ARL6 isoform 2 (UniProt Q9H0F7)
inactive: crizotinib 0.011 | doramapimod 0.058 | quisinostat 0.261 | [4] -0.046 | [5] 0.105

2 consecutive records already listed, for reference:
ART4 (UniProt Q93070)
inactive: pictilisib 0.005 | [6] 0.028 | gandotinib 0.012 | tozasertib 0.07 | bafetinib -0.019 | [7] -0.008

ARL6 isoform 2 (UniProt Q9H0F7)
inactive: crizotinib 0.011 | doramapimod 0.058 | quisinostat 0.261 | [4] -0.046 | [5] 0.105

(further entries)

ARHGEF16 (UniProt Q5VV41)
inactive: tozasertib 0.004 | [5] 0.062

ARHGEF2 (UniProt V9GYF0)
inactive: lapatinib -0.134 | duvelisib 0.11 | tozasertib 0.041 | nilotinib 0.029 | [1] -0.119 | dasatinib 0.02 | [2] -0.113 | [3] -0.139 | tipifarnib -0.23 | [8] 0.117

ARHGEF12 isoform 2 (UniProt Q9NZN5)
inactive: crizotinib -0.046 | tozasertib 0.008 | doramapimod -0.063 | quisinostat 0.032 | [4] 0.038

APOL1 isoform 2 (UniProt O14791)
inactive: [6] -0.284 | duvelisib 0.157 | gandotinib -0.093 | tozasertib -0.276 | [7] 0.254 | dasatinib -0.203 | [3] -0.109

ARL14EP (UniProt Q8N8R7)
inactive: pictilisib -0.031 | crizotinib -0.108 | [6] 0.032 | duvelisib -0.014 | gandotinib -0.001 | doramapimod 0.023 | bafetinib -0.116 | [7] -0.064 | nilotinib -0.01 | [1] 0.059 | dasatinib 0.041 | [2] -0.03 | [3] 0.017 | quisinostat -0.005 | tipifarnib 0.039 | [4] 0.068 | [5] 0.07

APC (UniProt P25054)
inactive: pictilisib -0.086 | crizotinib -0.038 | [6] -0.158 | duvelisib -0.033 | gandotinib 0.005 | tozasertib 0.056 | doramapimod 0.028 | bafetinib 0.045 | [7] 0.043 | dasatinib 0.019 | [3] 0.049 | quisinostat -0.066 | [4] 0.014 | [5] 0.093

ARL4A (UniProt P40617)
inactive: tozasertib 0.029 | nilotinib 0.078 | [1] -0.061 | [2] -0.093 | tipifarnib -0.14

APLNR (UniProt P35414)
inactive: [6] 0.07 | gandotinib 0 | [7] 0.066
